Here are results for two molecules from paper doi:10.1101/526152.

Chains of the proteins cited; added tags and fusions are not shown. Lines headed by an entry give the natural chain unless they say otherwise; changes in a name come on top. Residues count along the entry.
UniProt P46940: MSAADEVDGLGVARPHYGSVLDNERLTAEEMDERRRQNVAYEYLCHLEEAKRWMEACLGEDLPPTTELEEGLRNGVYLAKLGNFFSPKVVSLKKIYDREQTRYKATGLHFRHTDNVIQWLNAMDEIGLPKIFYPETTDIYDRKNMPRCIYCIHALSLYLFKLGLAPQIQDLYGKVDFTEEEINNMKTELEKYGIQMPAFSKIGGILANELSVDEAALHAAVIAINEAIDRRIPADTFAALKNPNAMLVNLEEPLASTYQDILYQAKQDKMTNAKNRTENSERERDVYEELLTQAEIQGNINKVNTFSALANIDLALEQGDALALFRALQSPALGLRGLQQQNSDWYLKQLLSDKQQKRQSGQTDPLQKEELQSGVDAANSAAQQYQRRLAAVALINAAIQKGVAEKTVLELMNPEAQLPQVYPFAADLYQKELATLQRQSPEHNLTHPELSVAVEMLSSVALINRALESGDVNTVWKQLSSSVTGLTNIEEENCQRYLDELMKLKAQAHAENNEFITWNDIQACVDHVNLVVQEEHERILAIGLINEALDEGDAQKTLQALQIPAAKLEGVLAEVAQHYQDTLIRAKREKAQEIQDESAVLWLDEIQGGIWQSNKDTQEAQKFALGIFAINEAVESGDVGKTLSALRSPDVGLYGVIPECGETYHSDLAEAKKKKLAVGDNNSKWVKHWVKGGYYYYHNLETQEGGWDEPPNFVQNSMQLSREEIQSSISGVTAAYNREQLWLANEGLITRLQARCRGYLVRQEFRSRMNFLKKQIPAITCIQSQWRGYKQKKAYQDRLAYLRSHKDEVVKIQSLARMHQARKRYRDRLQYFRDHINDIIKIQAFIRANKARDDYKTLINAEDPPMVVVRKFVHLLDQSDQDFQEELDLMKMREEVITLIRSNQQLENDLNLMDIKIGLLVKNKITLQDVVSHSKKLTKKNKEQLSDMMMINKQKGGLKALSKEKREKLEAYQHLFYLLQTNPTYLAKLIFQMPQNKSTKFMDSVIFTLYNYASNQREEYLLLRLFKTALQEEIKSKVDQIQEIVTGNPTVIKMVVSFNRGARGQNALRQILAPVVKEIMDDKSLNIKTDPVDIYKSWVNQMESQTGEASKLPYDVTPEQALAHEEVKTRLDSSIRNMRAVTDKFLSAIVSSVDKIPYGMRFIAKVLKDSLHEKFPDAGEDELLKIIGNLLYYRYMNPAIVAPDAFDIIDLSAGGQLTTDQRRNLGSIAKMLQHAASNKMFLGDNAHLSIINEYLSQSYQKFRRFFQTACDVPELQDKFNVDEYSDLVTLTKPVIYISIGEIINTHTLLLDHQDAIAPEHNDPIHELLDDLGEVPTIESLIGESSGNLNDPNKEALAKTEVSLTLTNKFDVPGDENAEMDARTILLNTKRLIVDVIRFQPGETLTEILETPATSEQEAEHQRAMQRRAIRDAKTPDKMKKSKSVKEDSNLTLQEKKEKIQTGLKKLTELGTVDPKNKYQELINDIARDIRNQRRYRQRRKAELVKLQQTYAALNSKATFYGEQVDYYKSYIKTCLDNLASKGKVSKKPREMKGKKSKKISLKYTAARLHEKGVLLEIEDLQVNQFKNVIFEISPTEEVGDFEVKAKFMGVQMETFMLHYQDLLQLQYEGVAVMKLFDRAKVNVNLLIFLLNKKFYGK
GST-IQGAP1-N (aa 1–863): residues 1-863 of P46940
GST-IQGAP1-C (aa 746–1657): residues 746-1657 of P46940

The target of assay [1] is IQ motif-containing GTPase-activating protein 1 (IQGAP1) (human (endogenous in skin fibroblasts)) (UniProt P46940). Kind of assay: co-IP.
For assay [2], the target named is GST-IQGAP1-C (aa 746–1657) (human) (UniProt P46940). The assay can be described thus: pull-down.
Assay [3] has as its target GST-IQGAP1-N (aa 1–863) (human) (UniProt P46940). The assay can be described thus: pull-down.

No constants are given. Whether binding was seen depends on the method and setting. Binding seen in cells or lysates may run through a third protein. Some results given as binding are weak or reduced against the parent protein; the word gives no strength.

B1: Phospholipase C (PLC)-δ1 (enzyme, UniProt P51178 1-756)
chain: MDSGRDFLTLHGLQDDEDLQALLKGSQLLKVKSSSWRRERFYKLQEDCKTIWQESRKVMRTPESQLFSIEDIQEVRMGHRTEGLEKFARDVPEDRCFSIVFKDQRNTLDLIAPSPADAQHWVLGLHKIIHHSGSMDQRQKLQHWIHSCLRKADKNKDNKMSFKELQNFLKELNIQVDDSYARKIFRECDHSQTDSLEDEEIEAFYKMLTQRVEIDRTFAEAAGSGETLSVDQLVTFLQHQQREEAAGPALALSLIERYEPSETAKAQRQMTKDGFLMYLLSADGSAFSLAHRRVYQDMGQPLSHYLVSSSHNTYLLEDQLAGPSSTEAYIRALCKGCRCLELDCWDGPNQEPIIYHGYTFTSKILFCDVLRAIRDYAFKASPYPVILSLENHCTLEQQRVMARHLHAILGPMLLNRPLDGVTNSLPSPEQLKGKILLKGKKLGGLLPPGGEGGPEATVVSDEDEAAEMEDEAVRSRVQHKPKEDKLRLAQELSDMVIYCKSVHFGGFSSPGTPGQAFYEMASFSENRALRLLQESGNGFVRHNVGHLSRIYPAGWRTDSSNYSPVEMWNGGCQIVALNFQTPGPEMDVYQGRFQDNGACGYVLKPAFLRDPNGTFNPRALAQGPWWARKRLNIRVISGQQLPKVNKNKNSIVDPKVTVEIHGVSRDVASRQTAVITNNGFNPWWDTEFAFEVVVPDLALIRFLVEDYDASSKNDFIGQSTIPLNSLKQGYRHVHLMSKNGDQHPSATLFVKISLQD
Take B1: in assay [1], the binding result is “binds”.

B2: PLC-δ1 (1–756) (enzyme, UniProt P51178 1-756)
chain: B1 chain
As for B2, the binding entry in assay [2] is recorded as “no binding”; in assay [3], “binds”.
